Results are given in words; binding and its absence hold for the method and conditions named. In cells and extracts the contact can be indirect. Some binding calls cover weakened binding; strength is not graded here.

Amino acid sequences for entries named in this document (tags omitted).
UniProt P03129: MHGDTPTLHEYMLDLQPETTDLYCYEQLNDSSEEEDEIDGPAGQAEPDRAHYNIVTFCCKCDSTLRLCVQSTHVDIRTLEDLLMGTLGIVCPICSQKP

Binding data for 1 molecule are collected here from publication PMC9827110.

The target of this assay is HPV16-E7, 3xMYC-tagged (human papillomavirus 16) (UniProt P03129). Nature of the assay: co-IP; U2OS transfected with 3xMYC-tagged E7; 24 h 1 umol/L MG-132; lysate on anti-MYC agarose beads 2 h at 4 C; immunoblot. On the technique in general: Immunoblotting shows a protein as a band on a membrane.

B1: pRB, endogenous in U2OS (protein, UniProt P06400 1-928)
chain: MPPKTPRKTAATAAAAAAEPPAPPPPPPPEEDPEQDSGPEDLPLVRLEFEETEEPDFTALCQKLKIPDHVRERAWLTWEKVSSVDGVLGGYIQKKKELWGICIFIAAVDLDEMSFTFTELQKNIEISVHKFFNLLKEIDTSTKVDNAMSRLLKKYDVLFALFSKLERTCELIYLTQPSSSISTEINSALVLKVSWITFLLAKGEVLQMEDDLVISFQLMLCVLDYFIKLSPPMLLKEPYKTAVIPINGSPRTPRRGQNRSARIAKQLENDTRIIEVLCKEHECNIDEVKNVYFKNFIPFMNSLGLVTSNGLPEVENLSKRYEEIYLKNKDLDARLFLDHDKTLQTDSIDSFETQRTPRKSNLDEEVNVIPPHTPVRTVMNTIQQLMMILNSASDQPSENLISYFNNCTVNPKESILKRVKDIGYIFKEKFAKAVGQGCVEIGSQRYKLGVRLYYRVMESMLKSEEERLSIQNFSKLLNDNIFHMSLLACALEVVMATYSRSTSQNLDSGTDLSFPWILNVLNLKAFDFYKVIESFIKAEGNLTREMIKHLERCEHRIMESLAWLSDSPLFDLIKQSKDREGPTDHLESACPLNLPLQNNHTAADMYLSPVRSPKKKGSTTRVNSTANAETQATSAFQTQKPLKSTSLSLFYKKVYRLAYLRLNTLCERLLSEHPELEHIIWTLFQHTLQNEYELMRDRHLDQIMMCSMYGICKVKNIDLKFKIIVTAYKDLPHAVQETFKRVLIKEEEYDSIIVFYNSVFMQRLKTNILQYASTRPPTLSPIPHIPRSPYKFPSSPLRIPGGNIYISPLKSPYKISEGLPTPTKMTPRSRILVSIGESFGTSEKFQKINQMVCNSDRVLKRSAEGSNPPKPLKKLRFDIEGSDEADGSKHLPGESKFQQKLAEMTSTRTRMQKQKMNDSMDTSNKEEK
Regarding B1, the binding entry was “binds”.
